# This is one part of the list.
# B1: Gal 12 (Homo sapiens), Q96DT0 (protein)
# chain: MSQPSGGRAPGTRIYSWSCPTVMSPGEKLDPIPDSFILQPPVFHPVVPYVTTIFGGLHAGKMVMLQGVVPLDAHRFQVDFQCGCSLCPRPDIAFHFNPRFHTTKPHVICNTLHGGRWQREARWPHLALRRGSSFLILFLFGNEEVKVSVNGQHFLHFRYRLPLSHVDTLGIFGDILVEAVGFLNINPFVEGSREYPAGHPFLLMSPRLEVPCSHALPQGLSPGQVIIVRGLVLQEPKHFTVSLRDQAAHAPVTLRASFADRTLAWISRWGQKKLISAPFLFYPQRFFEVLLLFQEGGLKLALNGQGLGATSMNQQALEQLRELRISGSVQLYCVHS
# Tests used:
# Assay in all cases: glycan array binding signal (z-score within array); higher = stronger binding
# Conditions in all cases: glycan notation: IUPAC condensed, linker removed
# [1] = target: Gal(b1-4)GlcNAc(b1-3)[Gal(b1-4)GlcNAc(b1-6)]GalNAc
# Method in brief: (§1)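 Negative Z-scores can be read as non-binding. The Z-score is calculated within each array and then averaged across arrays of one protein sequence at different concentrations or buffers and across linkers. Arrays, 3228 in all, were curated from the Consortium for Functional Glycomics database and kept only where the protein sequence was available.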
# [2] = target: Gal(b1-4)GlcNAc(b1-3)[GlcNAc(b1-6)]Gal(b1-4)GlcNAc
# Method in brief: as §1
# [3] = target: Gal(b1-4)GlcNAc(b1-6)Gal(b1-4)GlcNAc
# Method in brief: as §1
# [4] = target: Gal(b1-4)GlcNAc(b1-6)GalNAc
# Method in brief: as §1
# [5] = target: Gal(b1-4)GlcNAc(b1-6)[Gal(b1-3)]GalNAc
# Method in brief: as §1
# [6] = target: Gal(b1-4)GlcNAc(b1-6)[Gal(b1-4)GlcNAc(b1-3)]GalNAc
# Method in brief: as §1
# Gal(b1-4)GlcNAc6P = target: Gal(b1-4)GlcNAc6P
# Method in brief: as §1
# Gal(b1-6)Gal = target: Gal(b1-6)Gal
# Method in brief: as §1
# Gal3S(b1-3)GalNAc = target: Gal3S(b1-3)GalNAc
# Method in brief: as §1
# Gal3S(b1-3)GlcNAc = target: Gal3S(b1-3)GlcNAc
# Method in brief: as §1
# [7] = target: Gal3S(b1-3)[Fuc(a1-4)]GlcNAc
# Method in brief: as §1
# Gal3S(b1-4)Glc = target: Gal3S(b1-4)Glc
# Method in brief: as §1
# Gal3S(b1-4)Glc6S = target: Gal3S(b1-4)Glc6S
# Method in brief: as §1
# Gal3S(b1-4)GlcNAc = target: Gal3S(b1-4)GlcNAc
# Method in brief: as §1
# Gal3S(b1-4)GlcNAc6S = target: Gal3S(b1-4)GlcNAc6S
# Method in brief: as §1
# [8] = target: Gal3S(b1-4)[Fuc(a1-3)]Glc
# Method in brief: as §1
# [9] = target: Gal3S(b1-4)[Fuc(a1-3)]Glc6S
# Method in brief: as §1
# [10] = target: Gal3S(b1-4)[Fuc(a1-3)]GlcNAc
# Method in brief: as §1
# [11] = target: Gal3S(b1-4)[Fuc(a1-3)]GlcNAc6S
# Method in brief: as §1
# Gal3S4S(b1-4)GlcNAc = target: Gal3S4S(b1-4)GlcNAc
# Method in brief: as §1
# Gal3S6S(b1-4)GlcNAc = target: Gal3S6S(b1-4)GlcNAc
# Method in brief: as §1
# Gal3S6S(b1-4)GlcNAc6S = target: Gal3S6S(b1-4)GlcNAc6S
# Method in brief: as §1
# Gal4S(b1-4)GlcNAc = target: Gal4S(b1-4)GlcNAc
# Method in brief: as §1
# Gal4S6S(b1-4)GlcNAc = target: Gal4S6S(b1-4)GlcNAc
# Method in brief: as §1
# Gal6P(b1-4)GlcNAc = target: Gal6P(b1-4)GlcNAc
# Method in brief: as §1
# Gal6S(b1-3)GlcNAc = target: Gal6S(b1-3)GlcNAc
# Method in brief: as §1
# Gal6S(b1-3)GlcNAc6S = target: Gal6S(b1-3)GlcNAc6S
# Method in brief: as §1
# Gal6S(b1-4)Glc = target: Gal6S(b1-4)Glc
# Method in brief: as §1
# Gal6S(b1-4)Glc6S = target: Gal6S(b1-4)Glc6S
# Method in brief: as §1
# Gal6S(b1-4)GlcNAc = target: Gal6S(b1-4)GlcNAc
# Method in brief: as §1
# Gal6S(b1-4)GlcNAc6S = target: Gal6S(b1-4)GlcNAc6S
# Method in brief: as §1
# GalNAc(a1-3)Gal = target: GalNAc(a1-3)Gal
# Method in brief: as §1
# GalNAc(a1-3)GalNAc = target: GalNAc(a1-3)GalNAc
# Method in brief: as §1
# [12] = target: GalNAc(a1-3)GalNAc(a1-3)Gal(a1-4)Gal(b1-4)GlcNAc
# Method in brief: as §1
# [13] = target: GalNAc(a1-3)GalNAc(b1-3)Gal(a1-4)Gal(b1-4)Glc
# Method in brief: as §1
# [14] = target: GalNAc(a1-3)GalNAc(b1-3)Gal(a1-4)Gal(b1-4)GlcNAc
# Method in brief: as §1
# GalNAc(b1-3)Gal = target: GalNAc(b1-3)Gal
# Method in brief: as §1
binder,measurement,setting,value
B1,glycan array binding signal (z-score),[1],-0.352
same,glycan array binding signal (z-score),[2],-1.11
same,glycan array binding signal (z-score),[3],-0.725
same,glycan array binding signal (z-score),[4],0.417
same,glycan array binding signal (z-score),[5],0.131
same,glycan array binding signal (z-score),[6],0.954
same,glycan array binding signal (z-score),Gal(b1-4)GlcNAc6P,0.272
same,glycan array binding signal (z-score),Gal(b1-6)Gal,0.159
same,glycan array binding signal (z-score),Gal3S(b1-3)GalNAc,-0.01
same,glycan array binding signal (z-score),Gal3S(b1-3)GlcNAc,-0.005
same,glycan array binding signal (z-score),[7],0.343
same,glycan array binding signal (z-score),Gal3S(b1-4)Glc,0.451
same,glycan array binding signal (z-score),Gal3S(b1-4)Glc6S,0.539
same,glycan array binding signal (z-score),Gal3S(b1-4)GlcNAc,-0.335
same,glycan array binding signal (z-score),Gal3S(b1-4)GlcNAc6S,-0.56
same,glycan array binding signal (z-score),[8],2.01
same,glycan array binding signal (z-score),[9],3.19
same,glycan array binding signal (z-score),[10],2.76
same,glycan array binding signal (z-score),[11],-0.166
same,glycan array binding signal (z-score),Gal3S4S(b1-4)GlcNAc,0.103
same,glycan array binding signal (z-score),Gal3S6S(b1-4)GlcNAc,-0.659
same,glycan array binding signal (z-score),Gal3S6S(b1-4)GlcNAc6S,-0.767
same,glycan array binding signal (z-score),Gal4S(b1-4)GlcNAc,-0.015
same,glycan array binding signal (z-score),Gal4S6S(b1-4)GlcNAc,0.647
same,glycan array binding signal (z-score),Gal6P(b1-4)GlcNAc,0.375
same,glycan array binding signal (z-score),Gal6S(b1-3)GlcNAc,-0.369
same,glycan array binding signal (z-score),Gal6S(b1-3)GlcNAc6S,0.846
same,glycan array binding signal (z-score),Gal6S(b1-4)Glc,-0.183
same,glycan array binding signal (z-score),Gal6S(b1-4)Glc6S,0.851
same,glycan array binding signal (z-score),Gal6S(b1-4)GlcNAc,-0.639
same,glycan array binding signal (z-score),Gal6S(b1-4)GlcNAc6S,-0.084
same,glycan array binding signal (z-score),GalNAc(a1-3)Gal,0.531
same,glycan array binding signal (z-score),GalNAc(a1-3)GalNAc,-0.257
same,glycan array binding signal (z-score),[12],-0.531
same,glycan array binding signal (z-score),[13],0.43
same,glycan array binding signal (z-score),[14],-0.474
same,glycan array binding signal (z-score),GalNAc(b1-3)Gal,-0.335

# Some of the entries so far, with bars between the fields.
binder | measurement | setting | value
B1 | glycan array binding signal (z-score) | Gal3S(b1-3)GlcNAc | -0.005
same | glycan array binding signal (z-score) | Gal3S4S(b1-4)GlcNAc | 0.103

# Source: the supplement of paper PMC8728848
